Results are given in words; binding and its absence hold for the method and conditions named. Binding seen in cells or lysates may run through a third protein. Some binding calls cover weakened binding; strength is not graded here. Tags and fused reporters may be left off the sequences shown.

By UniProt entry, the sequences of proteins in these tests, tags left out. Where a name states a change or a piece, a line headed by the entry shows the natural chain unless it says otherwise. Chains listed by the source or under a name are the forms on record and can include a tag or linker.
UniProt P29590: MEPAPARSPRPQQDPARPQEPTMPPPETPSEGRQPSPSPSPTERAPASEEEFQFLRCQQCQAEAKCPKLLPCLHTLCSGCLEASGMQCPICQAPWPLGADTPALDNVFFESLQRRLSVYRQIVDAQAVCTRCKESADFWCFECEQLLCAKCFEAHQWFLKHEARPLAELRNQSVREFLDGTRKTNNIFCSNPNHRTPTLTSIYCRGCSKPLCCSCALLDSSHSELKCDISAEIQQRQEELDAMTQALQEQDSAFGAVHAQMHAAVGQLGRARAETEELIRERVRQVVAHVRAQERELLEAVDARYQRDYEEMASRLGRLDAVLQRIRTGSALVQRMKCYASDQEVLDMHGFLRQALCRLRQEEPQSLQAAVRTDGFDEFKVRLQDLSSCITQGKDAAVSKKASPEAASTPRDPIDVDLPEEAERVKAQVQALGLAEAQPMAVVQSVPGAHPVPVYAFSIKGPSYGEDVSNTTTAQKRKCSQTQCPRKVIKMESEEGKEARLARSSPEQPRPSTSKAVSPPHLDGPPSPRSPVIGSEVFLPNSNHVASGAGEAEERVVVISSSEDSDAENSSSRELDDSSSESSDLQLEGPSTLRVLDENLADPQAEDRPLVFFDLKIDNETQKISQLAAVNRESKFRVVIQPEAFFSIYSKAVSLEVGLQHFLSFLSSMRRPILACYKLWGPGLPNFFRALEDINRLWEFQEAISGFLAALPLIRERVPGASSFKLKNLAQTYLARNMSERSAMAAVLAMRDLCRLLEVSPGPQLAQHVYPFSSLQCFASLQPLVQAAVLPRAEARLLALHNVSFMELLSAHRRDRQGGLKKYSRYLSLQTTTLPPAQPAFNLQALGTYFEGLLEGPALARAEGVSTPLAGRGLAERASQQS
Flag-PML-I-Δ8a (P29590, form named): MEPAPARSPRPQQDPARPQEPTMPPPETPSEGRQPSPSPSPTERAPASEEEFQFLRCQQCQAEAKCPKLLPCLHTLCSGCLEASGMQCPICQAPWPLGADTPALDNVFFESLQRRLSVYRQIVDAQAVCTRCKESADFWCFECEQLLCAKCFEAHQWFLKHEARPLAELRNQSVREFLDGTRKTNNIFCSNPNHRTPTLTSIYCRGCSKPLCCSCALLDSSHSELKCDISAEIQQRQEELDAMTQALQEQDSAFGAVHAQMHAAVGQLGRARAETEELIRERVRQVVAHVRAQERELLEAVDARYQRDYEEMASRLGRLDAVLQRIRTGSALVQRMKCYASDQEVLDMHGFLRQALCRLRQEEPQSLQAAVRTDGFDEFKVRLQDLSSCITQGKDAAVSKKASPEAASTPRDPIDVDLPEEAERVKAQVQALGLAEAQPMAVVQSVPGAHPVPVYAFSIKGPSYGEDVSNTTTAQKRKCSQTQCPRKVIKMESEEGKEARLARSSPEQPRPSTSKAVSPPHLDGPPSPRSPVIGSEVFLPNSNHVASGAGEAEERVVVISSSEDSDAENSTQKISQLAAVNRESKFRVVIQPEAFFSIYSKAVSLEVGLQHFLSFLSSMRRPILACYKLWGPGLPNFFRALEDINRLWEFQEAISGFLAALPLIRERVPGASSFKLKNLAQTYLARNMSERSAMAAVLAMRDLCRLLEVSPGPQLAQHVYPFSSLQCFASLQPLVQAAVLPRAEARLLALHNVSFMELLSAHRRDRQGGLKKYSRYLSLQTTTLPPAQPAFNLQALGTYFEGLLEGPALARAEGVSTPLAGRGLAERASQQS

One experiment concerns the target Flag-PML-I (human) (UniProt P29590). The experiment in a line: co-IP; HEK293T cells co-transfected with HA-TREX1 and Flag-PML-I or Flag-PML-I-Δ8a; lysates immunoprecipitated with anti-Flag M2 beads for 4 h; western blotting with anti-HA and anti-Flag.
For another experiment, the target named is Flag-PML-I-Δ8a (human) (UniProt P29590). The description is as above.

B1: HA-TREX1 (protein, UniProt Q9NSU2 1-314)
chain: MGSQALPPGPMQTLIFFDMEATGLPFSQPKVTELCLLAVHRCALESPPTSQGPPPTVPPPPRVVDKLSLCVAPGKACSPAASEITGLSTAVLAAHGRQCFDDNLANLLLAFLRRQPQPWCLVAHNGDRYDFPLLQAELAMLGLTSALDGAFCVDSITALKALERASSPSEHGPRKSYSLGSIYTRLYGQSPPDSHTAEGDVLALLSICQWRPQALLRWVDAHARPFGTIRPMYGVTASARTKPRPSAVTTTAHLATTRNTSPSLGESRGTKDLPPVKDPGALSREGLLAPLGLLAILTLAVATLYGLSLATPGE
With B1, the binding result with Flag-PML-I (human) was “no binding”; with Flag-PML-I-Δ8a (human) it was “binds”.
